The data set concerns WC-1 (WHITE COLLAR-1) + WC-2 (WHITE COLLAR-2). Kind of data set: EMSA. The conditions noted are these: 0.1 ug poly(dI-dC), 0.5 ul rabbit serum, recombinant protein, label: 32P-dCTP end label.

For at least one entry, the source does not settle the construct or the ends of the probe.

With “GGGCGTCCTGATGCCGCTGCAAGACCGATGACGCTGCAAAATTGAGATCTA / GGGTAGATCTCAATTTTGCAGCGTCATCGGTCTTGCAGCGGCATCAGGACG [frq C-box probe]”, under “dark, 1 mM H2O2, binding induced, 2-fold less than in light, 1 mM FAD; 20 mM HEPES pH 7.9, 1 mM EDTA, 2 mM MgCl2, 10% glycerol, 20 uM ZnCl2; dialysis buffer had 40 mM KCl)”, the binding signal (fraction of binding in light) was 0.5. Besides, the binding result (light, 30 min, 1 mM FAD; 20 mM HEPES pH 7.9, 1 mM EDTA, 2 mM MgCl2, 10% glycerol, 20 uM ZnCl2; dialysis buffer had 40 mM KCl)) is on record as “binds”.

The values above are taken from article PMC3229512.
